Test results reported in the supplement of paper PMC7024190.
Counter-ions that a name gives are not always drawn. The list shows a part of the results. This data set is noisy: repeats of one test often differ as much as different tests do.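 A first-round screen of about ten thousand compounds sought those raising reporter output, using human embryonic kidney cells briefly transfected with a plasmid carrying a Renilla luciferase gene driven by the HSV-TK promoter.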

Each molecule was assayed on HEK 293FT (assay: log relative Renilla luciferase luminescence (reporter expression vs reference, reference not stated) (log (base not stated)); higher = higher recombinant reporter expression). Details: 10 µM; time after transfection 48 h.
Work on c1ccc2c(c1)Nc1ccccc1S2 yielded a log of 0.0514.
For CC(C)CC(N(C)C)C1(c2ccc(Cl)cc2)CCC1 (configuration not stated) [Sibutramine], the log was 0.115.
CNCC(O)c1ccc(O)cc1 (configuration not stated) gave a log of -0.105.
Work on COc1ccc(CCN)cc1OC [Homoveratrylamine] yielded a log of 0.0264.
CS(=O)(=O)Nc1ccc(Cc2noc(-c3ccc4[nH]cc(CCN)c4c3)n2)cc1 was tested, and the log was 0.0898.
Work on C[C@]12CCC(=O)C=C1CC[C@@H]1[C@@H]2CC[C@@]2(C)[C@H]1CC[C@]2(C)O [Methyltestosterone] yielded a log of -0.058.
In the case of COc1ccc2[nH]cc(C3=CCNCC3)c2c1, the log is reported as 0.197.
In the case of CCCCC/C=C\C/C=C\C/C=C\C/C=C\CCCC(=O)Nc1ccc(O)cc1, the log is reported as 0.131.
NC(=O)C[S+]([O-])C(c1ccccc1)c1ccccc1 (configuration not stated) [Modafinil] was tested, and the log was -0.102.
C[C@]12CC[C@H]3[C@@H](CCC4=CC(=O)CC[C@@H]43)[C@@H]1CC[C@@H]2O [19-Nortestosterone] was tested, and the log was -1.24.
Molecule c1ccc(Cn2ccnc2)cc1 has a log of 0.141.
For C[C@]12CC[C@H](O)CC1=CC[C@@H]1[C@@H]2CC[C@@]2(C)[C@H]1CC[C@]2(C)O, the log was -0.0832.
Work on O=C(O)C(Cl)Cl yielded a log of -0.0963.
O=C1CN=C(c2ccccc2)c2cc([N+](=O)[O-])ccc2N1 [Nitrazepam] gave a log of -0.133.
Work on C=C(C)CN1CC[C@]23c4c5ccc(O)c4O[C@H]2c2[nH]c4ccccc4c2C[C@@]3(O)C1C5 yielded a log of -0.0215.
CC(=O)O[C@H]1C[C@@H]2CC[C@@H]3[C@H](CC[C@@]4(C)[C@H]3C[C@H]([N+]3(C)CCCCC3)[C@@H]4OC(C)=O)[C@@]2(C)C[C@@H]1[N+]1(C)CCCCC1 [Pancuronium] was tested, and the log was 0.0946.
In the case of COc1cc(N)c(Cl)cc1C(=O)NC1CN2CCC1CC2 (configuration not stated) [Zacopride], the log is reported as 0.165.

Tested on: HEK 293FT
Assay: as above
Details: 10 µM; time after transfection 48 h
Remark: another data set of the same source
For CN1C[C@H](CNC(=O)OCc2ccccc2)C[C@@H]2c3cccc4c3c(cn4C)C[C@H]21 [Metergoline], the log was -0.00432.
Molecule CC(CN)CC(=O)O (configuration not stated) [3-Methyl-GABA] has a log of 0.0993.
C=CCN1C[C@H](C)N([C@H](c2ccc(C(=O)N(CC)CC)cc2)c2cccc(OC)c2)C[C@H]1C showed a log of -0.044.
CCOC(=O)c1ncc2[nH]c3ccc(OCc4ccccc4)cc3c2c1COC gave a log of -0.0528.
COc1cc(N)c(Cl)cc1C(=O)NC1CN2CCC1CC2 (configuration not stated) [Zacopride hydrochloride] gave a log of 0.209.
C(=C\c1ccccc1)/CN1CCN(CCOC(c2ccccc2)c2ccccc2)CC1 showed a log of 0.0219.
C[C@H](Cc1ccc(OCC(=O)O)cc1)NC[C@H](O)c1cccc(Cl)c1 was tested, and the log was -0.0231.
In the case of CC12NC(Cc3ccccc31)c1ccccc12 (single isomer, unassigned; (+)) [(+)-MK 801 maleate], the log is reported as -0.00216.
For COc1ccc2c(c1)c(CCN1CCOCC1)c(C)n2C(=O)c1cccc(Cl)c1Cl, the log was -0.0382.
Oc1ccc2c3c1O[C@H]1c4c(c5ccccc5n4Cc4ccccc4)C[C@@]4(O)C(C2)N(CC2CC2)CC[C@]314 [N-Benzylnaltrindole hydrochloride] showed a log of 0.0656.
CS(=O)(=O)Nc1ccc(Cc2noc(-c3ccc4[nH]cc(CCN)c4c3)n2)cc1 gave a log of 0.00106.
COc1ccc2[nH]cc(C3=CCNCC3)c2c1 was tested, and the log was -0.0142.
With CCCCC/C=C\C/C=C\C/C=C\C/C=C\CCCC(=O)Nc1ccc(O)cc1 the log was 0.0975.
For c1ccc2c(c1)OCC(C1=NCCN1)O2 (configuration not stated) [Idazoxan hydrochloride], the log was 0.0729.
C[C@@]12N[C@@H](Cc3ccccc31)c1ccccc12 [(-)-MK 801 maleate] was tested, and the log was 0.136.
In the case of COc1ccc(C(=O)N2CCCC2=O)cc1 [Aniracetam], the log is reported as 0.0467.
In the case of CC(C)(Cc1c[nH]c2ccc(Cl)cc12)NCCOc1ccccc1OCC1CC1, the log is reported as 0.027.
For CN1c2ccccc2C(NCCCCCCC(=O)O)c2ccc(Cl)cc2S1(=O)=O (configuration not stated) [Tianeptine], the log was 0.123.
Oc1cc2c(cc1O)[C@H]1c3ccccc3CN[C@@H]1CC2 (racemic) [Dihydrexidine hydrochloride] showed a log of -0.0798.
O=C(N[C@H]1CN2CCC1CC2)c1ccc(Cl)cc1 showed a log of -0.341.
Work on CC1=NN=C(c2ccc(N)cc2)c2cc3c(cc2C1)OCO3 yielded a log of 0.093.
C=CCN1CC[C@]23c4c5ccc(O)c4O[C@H]2/C(=N/NC(=O)c2ccccc2)CC[C@@]3(O)[C@H]1C5 [Naloxone benzoylhydrazone] was tested, and the log was 0.0477.
In the case of Clc1ccc(C2=CCCC3CCC2N3)cn1 (configuration not stated) [UB 165 fumarate], the log is reported as -0.00324.
Ic1cncc(OC[C@@H]2CCN2)c1 gave a log of 0.176.
O=c1ccc2[nH]cc(C3=CCNCC3)c2[nH]1 showed a log of -0.0109.
